Experimental findings from the supplement of paper PMC12819154, “High-throughput peptide-centric local stability assay extends protein–ligand identification to membrane proteins, tissues and bacteria” (Nature Structural & Molecular Biology, 2025) are described below.

Protein sequences, listed by entry. Tags and fused reporters are not part of them. Lines headed by an entry give the natural chain unless they say otherwise; changes in a name come on top.
UniProt Q8N141: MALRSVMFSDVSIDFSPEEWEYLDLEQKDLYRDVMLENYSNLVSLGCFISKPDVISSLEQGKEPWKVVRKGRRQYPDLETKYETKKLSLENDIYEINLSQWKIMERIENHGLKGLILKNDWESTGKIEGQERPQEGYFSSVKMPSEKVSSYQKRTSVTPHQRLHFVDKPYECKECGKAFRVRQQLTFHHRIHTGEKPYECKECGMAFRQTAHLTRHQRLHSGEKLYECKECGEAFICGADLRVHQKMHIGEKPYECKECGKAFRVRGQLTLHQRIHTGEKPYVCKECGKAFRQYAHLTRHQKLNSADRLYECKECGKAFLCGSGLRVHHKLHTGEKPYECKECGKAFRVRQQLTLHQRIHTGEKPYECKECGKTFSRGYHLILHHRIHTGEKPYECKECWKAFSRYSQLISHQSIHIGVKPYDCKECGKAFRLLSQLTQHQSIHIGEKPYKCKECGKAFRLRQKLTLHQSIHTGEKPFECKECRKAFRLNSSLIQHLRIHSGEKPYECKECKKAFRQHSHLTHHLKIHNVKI
UniProt Q8IUQ4: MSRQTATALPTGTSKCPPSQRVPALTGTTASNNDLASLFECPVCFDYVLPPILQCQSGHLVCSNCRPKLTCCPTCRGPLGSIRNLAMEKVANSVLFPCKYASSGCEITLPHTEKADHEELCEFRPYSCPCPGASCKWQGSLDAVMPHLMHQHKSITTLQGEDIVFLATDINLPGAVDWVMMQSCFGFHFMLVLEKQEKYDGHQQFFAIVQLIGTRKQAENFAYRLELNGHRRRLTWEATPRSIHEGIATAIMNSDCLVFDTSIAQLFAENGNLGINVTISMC
UniProt Q86X10: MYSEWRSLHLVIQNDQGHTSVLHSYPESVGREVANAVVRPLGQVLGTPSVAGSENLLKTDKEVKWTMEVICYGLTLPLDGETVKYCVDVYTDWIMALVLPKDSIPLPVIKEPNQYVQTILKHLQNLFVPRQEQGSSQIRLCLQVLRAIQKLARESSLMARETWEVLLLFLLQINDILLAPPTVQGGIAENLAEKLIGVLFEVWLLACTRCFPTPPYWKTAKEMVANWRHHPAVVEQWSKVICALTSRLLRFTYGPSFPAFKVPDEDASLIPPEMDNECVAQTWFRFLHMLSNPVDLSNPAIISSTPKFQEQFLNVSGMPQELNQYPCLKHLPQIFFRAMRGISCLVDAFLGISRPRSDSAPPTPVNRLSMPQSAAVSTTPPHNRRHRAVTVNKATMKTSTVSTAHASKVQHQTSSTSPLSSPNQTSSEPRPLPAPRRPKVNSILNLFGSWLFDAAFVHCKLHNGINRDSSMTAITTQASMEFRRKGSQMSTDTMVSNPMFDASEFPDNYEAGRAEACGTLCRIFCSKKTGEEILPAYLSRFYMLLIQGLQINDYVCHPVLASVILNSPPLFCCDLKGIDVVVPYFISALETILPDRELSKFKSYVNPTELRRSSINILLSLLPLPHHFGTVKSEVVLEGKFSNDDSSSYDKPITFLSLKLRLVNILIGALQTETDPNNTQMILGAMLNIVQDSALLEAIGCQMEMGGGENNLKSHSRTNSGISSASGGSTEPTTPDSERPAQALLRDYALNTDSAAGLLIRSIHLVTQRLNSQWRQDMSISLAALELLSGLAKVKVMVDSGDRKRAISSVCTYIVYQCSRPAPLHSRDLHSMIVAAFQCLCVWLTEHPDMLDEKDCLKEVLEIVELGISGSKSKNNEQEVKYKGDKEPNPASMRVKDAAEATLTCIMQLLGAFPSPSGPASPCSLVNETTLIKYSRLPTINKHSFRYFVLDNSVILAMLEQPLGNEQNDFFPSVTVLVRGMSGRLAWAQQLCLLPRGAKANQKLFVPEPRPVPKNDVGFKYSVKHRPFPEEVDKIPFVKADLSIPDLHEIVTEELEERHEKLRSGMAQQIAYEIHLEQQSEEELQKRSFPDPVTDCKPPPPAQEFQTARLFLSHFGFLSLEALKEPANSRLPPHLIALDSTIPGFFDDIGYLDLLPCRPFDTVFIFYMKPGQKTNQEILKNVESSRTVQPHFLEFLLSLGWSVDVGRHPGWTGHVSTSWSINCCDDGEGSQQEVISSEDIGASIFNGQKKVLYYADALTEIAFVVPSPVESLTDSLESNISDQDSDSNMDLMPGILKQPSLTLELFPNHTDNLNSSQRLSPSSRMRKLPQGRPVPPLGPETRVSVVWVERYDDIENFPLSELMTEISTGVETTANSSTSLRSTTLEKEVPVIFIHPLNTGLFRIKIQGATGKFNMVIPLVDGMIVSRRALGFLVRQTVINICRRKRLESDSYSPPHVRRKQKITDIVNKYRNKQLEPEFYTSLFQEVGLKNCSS
UniProt Q8IXK0: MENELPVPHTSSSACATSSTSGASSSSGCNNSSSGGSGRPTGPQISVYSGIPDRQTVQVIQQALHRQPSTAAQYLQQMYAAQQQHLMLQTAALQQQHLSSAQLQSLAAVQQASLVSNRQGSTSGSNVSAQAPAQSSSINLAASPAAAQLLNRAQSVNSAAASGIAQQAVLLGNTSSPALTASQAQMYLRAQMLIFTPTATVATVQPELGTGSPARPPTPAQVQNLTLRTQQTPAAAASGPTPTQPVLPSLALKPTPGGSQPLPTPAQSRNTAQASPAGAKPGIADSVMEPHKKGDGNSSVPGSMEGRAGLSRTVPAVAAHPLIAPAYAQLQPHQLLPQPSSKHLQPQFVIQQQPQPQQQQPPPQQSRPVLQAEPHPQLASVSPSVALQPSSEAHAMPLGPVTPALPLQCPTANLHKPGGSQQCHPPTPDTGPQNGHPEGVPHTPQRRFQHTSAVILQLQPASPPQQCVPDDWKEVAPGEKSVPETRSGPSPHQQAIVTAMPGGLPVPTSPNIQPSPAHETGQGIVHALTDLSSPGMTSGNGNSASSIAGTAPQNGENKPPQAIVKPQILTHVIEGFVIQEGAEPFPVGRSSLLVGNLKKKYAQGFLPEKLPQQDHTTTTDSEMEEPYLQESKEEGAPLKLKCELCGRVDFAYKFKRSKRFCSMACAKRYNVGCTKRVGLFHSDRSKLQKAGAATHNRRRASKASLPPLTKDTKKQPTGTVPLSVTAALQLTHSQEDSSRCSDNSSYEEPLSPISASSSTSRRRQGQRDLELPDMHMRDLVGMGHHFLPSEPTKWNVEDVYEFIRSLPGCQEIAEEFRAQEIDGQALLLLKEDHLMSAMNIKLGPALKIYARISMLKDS
UniProt Q8IXQ5, whole entry: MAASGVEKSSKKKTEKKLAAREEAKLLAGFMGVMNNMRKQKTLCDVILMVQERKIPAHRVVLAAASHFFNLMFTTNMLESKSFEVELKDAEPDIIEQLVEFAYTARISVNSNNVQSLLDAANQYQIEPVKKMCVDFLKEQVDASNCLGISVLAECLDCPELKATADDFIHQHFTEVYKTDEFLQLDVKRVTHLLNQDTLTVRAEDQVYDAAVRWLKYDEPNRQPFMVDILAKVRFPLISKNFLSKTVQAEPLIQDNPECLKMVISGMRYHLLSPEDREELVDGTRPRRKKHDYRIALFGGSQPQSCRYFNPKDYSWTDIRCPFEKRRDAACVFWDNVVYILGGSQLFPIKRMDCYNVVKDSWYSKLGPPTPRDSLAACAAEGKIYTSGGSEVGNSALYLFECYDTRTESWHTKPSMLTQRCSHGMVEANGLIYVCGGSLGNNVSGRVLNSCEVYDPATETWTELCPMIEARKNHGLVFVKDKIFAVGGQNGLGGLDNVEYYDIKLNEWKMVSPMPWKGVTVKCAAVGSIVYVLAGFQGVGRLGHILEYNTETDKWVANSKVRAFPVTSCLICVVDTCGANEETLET
UniProt Q8IZE3: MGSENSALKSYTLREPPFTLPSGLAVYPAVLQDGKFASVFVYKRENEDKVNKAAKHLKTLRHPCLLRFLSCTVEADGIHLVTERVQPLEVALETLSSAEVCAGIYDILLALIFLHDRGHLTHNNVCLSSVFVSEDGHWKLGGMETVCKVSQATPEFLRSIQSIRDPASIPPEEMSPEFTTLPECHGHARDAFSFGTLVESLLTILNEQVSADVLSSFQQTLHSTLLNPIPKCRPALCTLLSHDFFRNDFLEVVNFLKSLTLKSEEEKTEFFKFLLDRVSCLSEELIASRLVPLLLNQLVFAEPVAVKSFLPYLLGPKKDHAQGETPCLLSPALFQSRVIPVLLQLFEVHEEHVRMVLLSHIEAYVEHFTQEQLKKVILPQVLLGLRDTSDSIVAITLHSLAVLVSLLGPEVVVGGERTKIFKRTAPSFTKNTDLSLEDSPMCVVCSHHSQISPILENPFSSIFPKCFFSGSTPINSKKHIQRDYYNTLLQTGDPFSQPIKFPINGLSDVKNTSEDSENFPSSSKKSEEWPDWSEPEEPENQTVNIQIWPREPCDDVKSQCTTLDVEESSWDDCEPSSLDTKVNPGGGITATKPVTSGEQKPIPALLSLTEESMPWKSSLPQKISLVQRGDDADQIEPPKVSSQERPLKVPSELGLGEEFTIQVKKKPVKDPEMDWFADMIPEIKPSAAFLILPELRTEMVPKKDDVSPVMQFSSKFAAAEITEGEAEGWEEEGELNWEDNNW
UniProt Q8IYQ7: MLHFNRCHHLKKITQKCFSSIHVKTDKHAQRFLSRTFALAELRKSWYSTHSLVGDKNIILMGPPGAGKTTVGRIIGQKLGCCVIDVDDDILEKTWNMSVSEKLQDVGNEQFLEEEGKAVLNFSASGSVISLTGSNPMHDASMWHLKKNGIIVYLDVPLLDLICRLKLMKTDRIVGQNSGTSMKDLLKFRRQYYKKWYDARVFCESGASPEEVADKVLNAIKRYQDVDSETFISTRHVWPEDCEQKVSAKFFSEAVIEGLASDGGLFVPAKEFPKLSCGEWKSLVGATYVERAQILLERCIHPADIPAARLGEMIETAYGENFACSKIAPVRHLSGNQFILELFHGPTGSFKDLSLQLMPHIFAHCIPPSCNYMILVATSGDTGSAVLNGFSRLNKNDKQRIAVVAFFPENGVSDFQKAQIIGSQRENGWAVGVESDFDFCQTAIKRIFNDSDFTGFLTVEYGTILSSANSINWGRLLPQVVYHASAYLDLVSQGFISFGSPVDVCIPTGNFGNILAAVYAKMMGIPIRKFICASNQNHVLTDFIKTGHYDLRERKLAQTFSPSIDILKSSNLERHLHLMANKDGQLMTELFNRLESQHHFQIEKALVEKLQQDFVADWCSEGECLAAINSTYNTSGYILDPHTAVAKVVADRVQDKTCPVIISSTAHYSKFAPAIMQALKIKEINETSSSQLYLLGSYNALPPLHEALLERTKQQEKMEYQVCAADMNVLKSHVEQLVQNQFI
UniProt Q86WQ0: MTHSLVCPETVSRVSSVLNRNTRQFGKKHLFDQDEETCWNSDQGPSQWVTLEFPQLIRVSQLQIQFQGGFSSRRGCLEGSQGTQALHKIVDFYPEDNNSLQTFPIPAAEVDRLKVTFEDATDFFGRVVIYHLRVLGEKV
UniProt Q8IWP9: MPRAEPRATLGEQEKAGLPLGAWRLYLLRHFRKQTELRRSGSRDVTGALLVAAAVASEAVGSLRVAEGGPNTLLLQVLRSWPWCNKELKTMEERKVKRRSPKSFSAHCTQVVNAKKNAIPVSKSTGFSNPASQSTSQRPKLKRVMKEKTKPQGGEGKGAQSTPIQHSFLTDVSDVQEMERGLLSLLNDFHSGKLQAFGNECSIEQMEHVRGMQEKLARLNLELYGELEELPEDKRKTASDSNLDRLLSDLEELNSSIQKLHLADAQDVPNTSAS
UniProt Q8N3J9: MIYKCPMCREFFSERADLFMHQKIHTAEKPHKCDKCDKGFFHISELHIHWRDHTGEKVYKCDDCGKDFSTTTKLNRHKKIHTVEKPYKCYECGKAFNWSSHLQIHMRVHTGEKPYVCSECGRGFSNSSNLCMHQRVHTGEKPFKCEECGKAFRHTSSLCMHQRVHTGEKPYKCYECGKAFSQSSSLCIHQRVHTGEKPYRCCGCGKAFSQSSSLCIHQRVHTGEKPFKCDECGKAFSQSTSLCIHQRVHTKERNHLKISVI
UniProt Q8N392: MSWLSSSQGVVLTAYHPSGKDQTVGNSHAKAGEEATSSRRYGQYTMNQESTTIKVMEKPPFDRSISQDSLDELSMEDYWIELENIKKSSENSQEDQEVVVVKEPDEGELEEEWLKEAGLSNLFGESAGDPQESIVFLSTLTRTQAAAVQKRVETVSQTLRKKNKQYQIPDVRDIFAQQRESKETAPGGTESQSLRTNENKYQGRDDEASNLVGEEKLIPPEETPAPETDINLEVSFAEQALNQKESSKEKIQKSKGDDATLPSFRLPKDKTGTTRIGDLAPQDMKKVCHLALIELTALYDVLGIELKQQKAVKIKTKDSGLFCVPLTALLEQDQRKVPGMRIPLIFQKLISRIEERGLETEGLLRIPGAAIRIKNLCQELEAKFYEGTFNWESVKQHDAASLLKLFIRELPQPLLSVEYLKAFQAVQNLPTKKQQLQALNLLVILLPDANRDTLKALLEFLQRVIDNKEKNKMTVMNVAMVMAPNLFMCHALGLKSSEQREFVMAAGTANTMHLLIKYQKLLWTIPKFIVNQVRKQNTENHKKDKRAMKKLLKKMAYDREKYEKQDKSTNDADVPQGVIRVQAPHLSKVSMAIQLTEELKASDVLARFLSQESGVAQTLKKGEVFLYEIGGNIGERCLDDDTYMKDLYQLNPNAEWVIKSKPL

Some of the results follow. Most entries show no effect beyond the scatter of the controls.

Compound in this assay: CN[C@@H]1C[C@H]2O[C@@](C)([C@@H]1OC)n1c3ccccc3c3c4c(c5c6ccccc6n2c5c31)C(=O)NC4 [staurosporine]
Put plainly: log2 fold change of tryptic peptide abundance, ligand vs vehicle (limited proteolysis) (log2 ratio); higher = more trypsin-susceptible (destabilized). To be noted: ligand concentration: 20 uM; sample: K562 cleared lysate; digestion: 4 min, 22 C (HT-PELSA RT4min, Orbitrap Astral).
Regarding “PROSER1 (peptide sequence: GPSHSGNPSHGTLGLSGTLGR, peptide start residue: 621) (UniProt Q86XN7)”, the log2 fold change is 0.397.

For “UniProt Q8N141 (peptide sequence: IEGQERPQEGYFSSVK, peptide start residue: 127)”, the log2 fold change is -0.491.

“SIAH1 (peptide sequence: LTCCPTCR, peptide start residue: 69) (UniProt Q8IUQ4)”: the log2 fold change is 0.286.

Consider “UniProt Q86YB8 (peptide sequence: LQTQGLGTALK, peptide start residue: 403)”, for which the log2 fold change came to 0.378.

As to “UniProt Q8IUZ5 (peptide sequence: FRNLDGQK, peptide start residue: 155)”, the log2 fold change is -0.182.

“LONP2 (peptide sequence: MTIPLLVR, peptide start residue: 213) (UniProt Q86WA8)”: the log2 fold change turned out to be 0.0287.

Take “RCOR2 (peptide sequence: IQQMLPDKLIPSLVK, peptide start residue: 157) (UniProt Q8IZ40)”: the log2 fold change came out at 0.299.

In the case of “LMTK2 (peptide sequence: YFSPPPPAR, peptide start residue: 1448) (UniProt Q8IWU2)”, the log2 fold change is -0.366.

On to “SIRT2 (peptide sequence: KSPPPAKDEAR, peptide start residue: 371) (UniProt Q8IXJ6)”, for which the log2 fold change amounted to 0.197.

Regarding “C9orf40 (peptide sequence: DSGDNSAPSGQER, peptide start residue: 75) (UniProt Q8IXQ3)”, the log2 fold change was -0.146.

On to “UniProt Q86X10 (peptide sequence: GISCLVDAFLGISRPR, peptide start residue: 341)”, for which the log2 fold change turned out to be 1.03.

Consider “PHC2 (peptide sequence: DLVGMGHHFLPSEPTK, peptide start residue: 778) (UniProt Q8IXK0)”, for which the log2 fold change was 0.115.

With “KLHL7 (peptide sequence: ATADDFIHQHFTEVYK, peptide start residue: 163) (UniProt Q8IXQ5)”, the log2 fold change is -1.09.

“TRAPPC5 (peptide sequence: VTAHWHK, peptide start residue: 160) (UniProt Q8IUR0)”: the log2 fold change is 0.26.

“DHX40 (peptide sequence: TLTTDILFGLLKK, peptide start residue: 179) (UniProt Q8IX18)”: the log2 fold change was -0.442.

With “MIER1 (peptide sequence: KPLHADMDTNGYETDNLTTDPK, peptide start residue: 435) (UniProt Q8N108)”, the log2 fold change was determined as 0.527.

As to “RASSF3 (peptide sequence: TDTLSFVLR, peptide start residue: 175) (UniProt Q86WH2)”, the log2 fold change worked out at 0.24.

For the target “METTL4 (peptide sequence: EISISIIGK, peptide start residue: 124) (UniProt Q8N3J2)”, the log2 fold change was found to be 0.0182.

“NUP93 (peptide sequence: LSPATENKLR, peptide start residue: 363) (UniProt Q8N1F7)”: the log2 fold change worked out at 0.522.

With “UniProt Q8IXQ4 (peptide sequence: LAEQVSSYNESKR, peptide start residue: 260)”, the log2 fold change was -0.152.

On to “ANKRD13A (peptide sequence: ELEEWELR, peptide start residue: 564) (UniProt Q8IZ07)”, for which the log2 fold change turned out to be 0.18.

Turning to “SCYL3 (peptide sequence: NTSEDSENFPSSSKK, peptide start residue: 511) (UniProt Q8IZE3)”, the log2 fold change is -0.245.

With “THNSL1 (peptide sequence: AQIIGSQR, peptide start residue: 418) (UniProt Q8IYQ7)”, the log2 fold change is 0.679.

Regarding “NR2C2AP (peptide sequence: GCLEGSQGTQALHK, peptide start residue: 75) (UniProt Q86WQ0)”, the log2 fold change was -0.643.

“CCDC28A (peptide sequence: GLLSLLNDFHSGK, peptide start residue: 181) (UniProt Q8IWP9)”: the log2 fold change worked out at 0.193.

As to “UniProt Q8N3J9 (peptide sequence: AFSQSSSLCIHQR, peptide start residue: 179)”, the log2 fold change stood at 0.183.

Consider “ARHGAP18 (peptide sequence: IGDLAPQDMK, peptide start residue: 276) (UniProt Q8N392)”, for which the log2 fold change is -0.147.

For the target “ZNF440 (peptide sequence: TFISHSSVR, peptide start residue: 180) (UniProt Q8IYI8)”, the log2 fold change came to 0.401.
